Experimental data taken from publication PMC5483954, “Different specificities of two aldehyde dehydrogenases from Saccharomyces cerevisiae var. boulardii” (Bioscience Reports, 2017).
These are yes or no findings as the source states them, for the method shown. Some entries that bind do so weakly or less than the wild type. Where a sequence is shown, tags or fusion partners need not be part of it.

How the values were obtained:
[1] = biological target: Saccharomyces cerevisiae var. boulardii Ald6p variant p.M177V (Saccharomyces cerevisiae var. boulardii (NCYC 3264)) (UniProt P54115); experiment: SDS/PAGE of the untreated purified protein (SDS- and heat-resistant oligomers); purified protein without cross-linker on SDS/PAGE (10% gel); band not reduced by additional DTT (2 mM); both purified
[2] = biological target: Saccharomyces cerevisiae var. boulardii Ald6p variant p.M177V (Saccharomyces cerevisiae var. boulardii (NCYC 3264)) (UniProt P54115); experiment: cross-linking; 1-3% (v/v) glutaraldehyde; results not shown; both purified
[3] = biological target: Saccharomyces cerevisiae var. boulardii Ald6p variant p.M177V (Saccharomyces cerevisiae var. boulardii (NCYC 3264)) (UniProt P54115); experiment: cross-linking; BS3 (50-800 uM) with 15 uM protein in 100 mM sodium phosphate pH 7.4, 30 C, 35 min; products on SDS/PAGE (10% gel); both purified
[4] = biological target: Saccharomyces cerevisiae var. boulardii cytosolic aldehyde dehydrogenase Ald6p (wild-type) (Saccharomyces cerevisiae var. boulardii (NCYC 3264)) (UniProt P54115); experiment: cross-linking; 1-3% (v/v) glutaraldehyde; results not shown; both purified

Row | Binder | binding [1] | binding [2] | binding [3] | binding [4]
1 | Saccharomyces cerevisiae var. boulardii Ald6p variant p.M177V (enzyme, UniProt P54115 1-500) MTKLHFDTAEPVKITLPNGLTYEQPTGLFINNKFMKAQDGKTYPVEDPSTENTVCEVSSATTEDVEYAIECADRAFHDTEWATQDPRERGRLLSKLADELESQIDLVSSIEALDNGKTLALARGDVTIAINCLRDAAAYADKVNGRTINTGDGYMNFTTLEPVGVCGQIIPWNFPIVMLAWKIAPALAMGNVCILKPAAVTPLNALYFASLCKKVGIPAGVVNIVPGPGRTVGAALTNDPRIRKLAFTGSTEVGKSVAVDSSESNLKKITLELGGKSAHLVFDDANIKKTLPNLVNGIFKNAGQICSSGSRIYVQEGIYDELLAAFKAYLETEIKVGNPFDKANFQGAITNRQQFDTIMNYIDIGKKEGAKILTGGEKVGDKGYFIRPTVFYDVNEDMRIVKEEIFGPVVTVAKFKTLEEGVEMANSSEFGLGSGIETESLSTGLKVAKMLKAGTVWINTYNDFDSRVPFGGVKQSGYGREMGEEVYHAYTEVKAVRIKL | binds | binds | binds | 
2 | Saccharomyces cerevisiae var. boulardii cytosolic aldehyde dehydrogenase Ald6p (wild-type) (enzyme, UniProt P54115 1-500, looked up, Ald6p, cytosolic aldehyde dehydrogenase of S. cerevisiae var. boulardii NCYC 3264; differs from the S. cerevisiae S288c protein by valine for isoleucine at position 163; printed mass 54.4 kDa; Removal of the tag is not mentioned; also called cytosolic Ald6p; wild-type Ald6p; source: E. coli Rosetta (DE3), purified (cobalt agarose, dialysis)) MTKLHFDTAEPVKITLPNGLTYEQPTGLFINNKFMKAQDGKTYPVEDPSTENTVCEVSSATTEDVEYAIECADRAFHDTEWATQDPRERGRLLSKLADELESQIDLVSSIEALDNGKTLALARGDVTIAINCLRDAAAYADKVNGRTINTGDGYMNFTTLEPVGVCGQIIPWNFPIMMLAWKIAPALAMGNVCILKPAAVTPLNALYFASLCKKVGIPAGVVNIVPGPGRTVGAALTNDPRIRKLAFTGSTEVGKSVAVDSSESNLKKITLELGGKSAHLVFDDANIKKTLPNLVNGIFKNAGQICSSGSRIYVQEGIYDELLAAFKAYLETEIKVGNPFDKANFQGAITNRQQFDTIMNYIDIGKKEGAKILTGGEKVGDKGYFIRPTVFYDVNEDMRIVKEEIFGPVVTVAKFKTLEEGVEMANSSEFGLGSGIETESLSTGLKVAKMLKAGTVWINTYNDFDSRVPFGGVKQSGYGREMGEEVYHAYTEVKAVRIKL |  |  |  | binds
